Results: paper doi:10.1101/2020.07.02.184341
No constants are given. Whether binding was seen depends on the method and setting. For some assays here: In cells and extracts the contact can be indirect. Some entries that bind do so weakly or less than the wild type. For some assays here: Tags and fused reporters may be left off the sequences shown.

T1: CsrA^D41K, co-expressed with FliW or FliW^K123E in B. subtilis (B. subtilis) (UniProt P33911)
T1 sequence: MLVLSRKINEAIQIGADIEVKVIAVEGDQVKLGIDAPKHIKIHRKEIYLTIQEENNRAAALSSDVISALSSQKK

T2: CsrA (wild type), co-expressed with FliW in B. subtilis (B. subtilis) (UniProt P33911)
T2 sequence: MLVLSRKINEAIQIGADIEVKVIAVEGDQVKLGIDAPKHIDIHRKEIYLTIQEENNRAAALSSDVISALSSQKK

T3: GST-CsrA^D41K (B. subtilis) (UniProt P33911)
T3 sequence: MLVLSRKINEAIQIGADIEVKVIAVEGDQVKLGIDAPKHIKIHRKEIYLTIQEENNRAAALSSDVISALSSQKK

T4: GST tagged CsrA (GST-CsrA^WT) (B. subtilis) (UniProt P33911)
T4 sequence: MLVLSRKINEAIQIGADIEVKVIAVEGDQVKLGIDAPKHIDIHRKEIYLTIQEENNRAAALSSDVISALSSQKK


Tests used:
[1] = molecular target: T1, CsrA^D41K, co-expressed with FliW or FliW^K123E in B. subtilis (B. subtilis); test: cross-linking
[2] = molecular target: T2, CsrA (wild type), co-expressed with FliW in B. subtilis (B. subtilis); test: cross-linking
[3] = molecular target: T3, GST-CsrA^D41K (B. subtilis); test: pull-down
[4] = molecular target: T4, GST tagged CsrA (GST-CsrA^WT) (B. subtilis); test: pull-down

binding [1]	binding [2]	binding [4]	further results	Binder
binds	binds	–	–	FliW (wild type), co-expressed with CsrA in B. subtilis (protein, UniProt P96503 1-143) MIIHTKYHGQMNIKEEQIILFESGIPGFLEEKQFVILPLSEDSPFVALQSVTSENLAFIVVSPFIFFKNYEFDLDESTAELLDIDNIQDVEVMTILTMAEPFEKSTANLLAPIIVNRKNMMAKQVVLHDSSYTTKHPIGGESC
binds	binds	–	–	FliW^K123E, co-expressed with CsrA or CsrA^D41K in B. subtilis (protein, UniProt P96503 1-143) MIIHTKYHGQMNIKEEQIILFESGIPGFLEEKQFVILPLSEDSPFVALQSVTSENLAFIVVSPFIFFKNYEFDLDESTAELLDIDNIQDVEVMTILTMAEPFEKSTANLLAPIIVNRKNMMAEQVVLHDSSYTTKHPIGGESC
–	–	–	binding [3]: binds weakly	purified untagged wild-type FliW (FliW^WT) (protein, UniProt P96503 1-143) MIIHTKYHGQMNIKEEQIILFESGIPGFLEEKQFVILPLSEDSPFVALQSVTSENLAFIVVSPFIFFKNYEFDLDESTAELLDIDNIQDVEVMTILTMAEPFEKSTANLLAPIIVNRKNMMAKQVVLHDSSYTTKHPIGGESC
–	binds	–	–	FliW^A122V, co-expressed with CsrA in B. subtilis (protein, UniProt P96503 1-143) MIIHTKYHGQMNIKEEQIILFESGIPGFLEEKQFVILPLSEDSPFVALQSVTSENLAFIVVSPFIFFKNYEFDLDESTAELLDIDNIQDVEVMTILTMAEPFEKSTANLLAPIIVNRKNMMVKQVVLHDSSYTTKHPIGGESC
–	–	no binding (tested: 0.5 μM)	–	purified FliW^N108Y (protein, UniProt P96503 1-143) MIIHTKYHGQMNIKEEQIILFESGIPGFLEEKQFVILPLSEDSPFVALQSVTSENLAFIVVSPFIFFKNYEFDLDESTAELLDIDNIQDVEVMTILTMAEPFEKSTAYLLAPIIVNRKNMMAKQVVLHDSSYTTKHPIGGESC
–	–	no binding (tested: 0.5 μM)	–	purified FliW^Q124R (protein, UniProt P96503 1-143) MIIHTKYHGQMNIKEEQIILFESGIPGFLEEKQFVILPLSEDSPFVALQSVTSENLAFIVVSPFIFFKNYEFDLDESTAELLDIDNIQDVEVMTILTMAEPFEKSTANLLAPIIVNRKNMMAKRVVLHDSSYTTKHPIGGESC
